According to PMC12580894 (Cancer Research Communications, 2025):
“Also recorded” adds a separate entry of the source.

Assays:
[1] = test system: patients with advanced solid tumors; experiment: Phase Ib dose-escalation (3 + 3) of elimusertib with cisplatin: safety, DLT, MTD
[2] = test system: advanced or metastatic gastrointestinal malignancies; settings: in vivo; cited from earlier work
[3] = first-in-human study, cited from earlier work
clinical = settings: human, in vivo; for AUC(0-inf): AUC0–inf
[4] = All patients (n=15), elimusertib with cisplatin
[5] = Patients at MTD (n=6), elimusertib with cisplatin
[6] = elimusertib with cisplatin, all patients

C[C@@H]1COCCN1c1cc(-c2ccnn2C)c2ccnc(-c3ccn[nH]3)c2n1 [elimusertib]
Alkaline phosphatase increase, Grade 1-2 [1, 4]: 2 (13%) n(%)
Anemia, Grade 1-2 [1, 4]: 5 (33%) n(%)
Anemia, Grade 3 or higher [1, 4]: 5 (33%) n(%)
Anorexia, Grade 1-2 [1, 4]: 4 (27%) n(%)
Anorexia, Grade 3 or higher [1, 4]: 1 (7%) n(%)
Creatinine increase, Grade 1-2 [1, 4]: 2 (13%) n(%)
Creatinine increase, Grade 3 or higher [1, 4]: 1 (7%) n(%)
Dehydration, Grade 1-2 [1, 4]: 1 (7%) n(%)
Diarrhea, Grade 1-2 [1, 4]: 1 (7%) n(%)
Dysgeusia, Grade 1-2 [1, 4]: 2 (13%) n(%)
Dyspepsia, Grade 1-2 [1, 4]: 2 (13%) n(%)
Epistaxis, Grade 1-2 [1, 4]: 1 (7%) n(%)
Fatigue, Grade 1-2 [1, 4]: 7 (47%) n(%)
Fatigue, Grade 3 or higher [1, 4]: 2 (13%) n(%)
Febrile neutropenia, Grade 3 or higher [1, 4]: 2 (13%) n(%)
Gastroesophageal reflux disease, Grade 1-2 [1, 4]: 1 (7%) n(%)
Generalized muscle weakness, Grade 1-2 [1, 4]: 1 (7%) n(%)
Hypoalbuminemia, Grade 1-2 [1, 4]: 1 (7%) n(%)
Hypokalemia, Grade 1-2 [1, 4]: 2 (13%) n(%)
Hypokalemia, Grade 3 or higher [1, 4]: 1 (7%) n(%)
Hypomagnesemia, Grade 1-2 [1, 4]: 5 (33%) n(%)
Hyponatremia, Grade 1-2 [1, 4]: 2 (13%) n(%)
Leukopenia, Grade 1-2 [1, 4]: 1 (7%) n(%)
Leukopenia, Grade 3 or higher [1, 4]: 8 (53%) n(%)
Lung infection, Grade 3 or higher [1, 4]: 1 (7%) n(%)
Lymphopenia, Grade 1-2 [1, 4]: 6 (40%) n(%)
Lymphopenia, Grade 3 or higher [1, 4]: 2 (13%) n(%)
Neutropenia, Grade 3 or higher [1, 4]: 9 (60%) n(%)
Peripheral sensory neuropathy, Grade 1-2 [1, 4]: 3 (20%) n(%)
Sepsis, Grade 3 or higher [1, 4]: 1 (7%) n(%)
Syncope, Grade 3 or higher [1, 4]: 1 (7%) n(%)
Thrombocytopenia, Grade 1-2 [1, 4]: 1 (7%) n(%)
Thrombocytopenia, Grade 3 or higher [1, 4]: 7 (47%) n(%)
Transaminitis, Grade 1-2 [1, 4]: 1 (7%) n(%)
Transaminitis, Grade 3 or higher [1, 4]: 1 (7%) n(%)
Wound dehiscence, Grade 1-2 [1, 4]: 1 (7%) n(%)
DLTs observed (by patient) ([1]; DL 0: elimusertib 10 mg orally twice daily on days 2 and 9, cisplatin 60 mg/m^2 intravenously on day 1): Patient 1 Grade 4: neutropenia; also recorded: Patient 2 Grade 4: febrile neutropenia, thrombocytopenia
DLTs observed (by patient) ([1]; DL 1: elimusertib 20 mg orally twice daily on days 2 and 9, cisplatin 60 mg/m^2 intravenously on day 1): Patient 1 Grade 3: creatinine increase, fatigue Grade 4: neutropenia, thrombocytopenia; also recorded: Patient 2 Grade 4: neutropenia; also recorded: Patient 3 Grade 4: hypokalemia, thrombocytopenia
DLTs observed (by patient) ([1]; DL −1: elimusertib 20 mg orally once a day on days 2 and 9, cisplatin 30 mg/m^2 intravenously on days 1 and 8): Patient 1 Grade 3: syncope; also recorded: Patient 2 Grade 4: thrombocytopenia
DLTs observed (by patient) ([1]; DL −2: elimusertib 20 mg orally once a day on day 2, cisplatin 30 mg/m^2 intravenously on days 1 and 8): Grade 3: fatigue Grade 4: neutropenia, thrombocytopenia
Anemia, Grade 3 or higher [1, 5]: 3 (50%) n(%)
Anorexia, Grade 1-2 [1, 5]: 2 (33%) n(%)
Creatinine increase, Grade 1-2 [1, 5]: 1 (17%) n(%)
Diarrhea, Grade 1-2 [1, 5]: 1 (17%) n(%)
Dysgeusia, Grade 1-2 [1, 5]: 2 (33%) n(%)
Fatigue, Grade 1-2 [1, 5]: 2 (33%) n(%)
Fatigue, Grade 3 or higher [1, 5]: 1 (17%) n(%)
Hypokalemia, Grade 1-2 [1, 5]: 2 (33%) n(%)
Hypomagnesemia, Grade 1-2 [1, 5]: 2 (33%) n(%)
Leukopenia, Grade 1-2 [1, 5]: 2 (33%) n(%)
Leukopenia, Grade 3 or higher [1, 5]: 2 (33%) n(%)
Lymphopenia, Grade 1-2 [1, 5]: 3 (50%) n(%)
Lymphopenia, Grade 3 or higher [1, 5]: 1 (17%) n(%)
Neutropenia, Grade 3 or higher [1, 5]: 3 (50%
Thrombocytopenia, Grade 3 or higher [1, 5]: 3 (50%) n(%)
patients requiring elimusertib dose reduction due to toxicity ([1]; at the MTD): one
maximum tolerated dose (MTD) ([1]; dose level −2: elimusertib orally once on day 2 with cisplatin 30 mg/m^2 intravenously on days 1 and 8, 21-day cycle): 20 mg
patients requiring dose holds of elimusertib on day 9 ([1]; dose levels that included day 9 of elimusertib, out of nine patients): three
patients who died due to protocol therapy ([1]; eight of 15 patients had died at data cutoff): none
grade 3 or higher AEs at the MTD ([1]; elimusertib 20 mg once on day 2, cisplatin 30 mg/m^2 on days 1 and 8): anemia, fatigue, leukopenia, lymphopenia, neutropenia, and thrombocytopenia
dose-limiting toxicities (DLT) requiring dose de-escalation ([1]; elimusertib with cisplatin, all dose levels): creatinine increase, hypokalemia, febrile neutropenia, neutropenia, syncope, and thrombocytopenia
Grade 3 serious adverse events (SAEs): anemia [1, 6]: 4 n
Grade 3 serious adverse events (SAEs): anorexia [1, 6]: 1 n
Grade 3 serious adverse events (SAEs): creatinine increase [1, 6]: 1 n
Grade 3 serious adverse events (SAEs): fatigue [1, 6]: 2 n
Grade 3 serious adverse events (SAEs): febrile neutropenia [1, 6]: 1 n
Grade 3 serious adverse events (SAEs): leukopenia [1, 6]: 4 n
Grade 3 serious adverse events (SAEs): lung infection [1, 6]: 1 n
Grade 3 serious adverse events (SAEs): lymphopenia [1, 6]: 2 n
Grade 3 serious adverse events (SAEs): neutropenia [1, 6]: 5 n
Grade 3 serious adverse events (SAEs): syncope [1, 6]: 1 n
Grade 3 serious adverse events (SAEs): transaminitis [1, 6]: 1 n
Grade 4 SAEs: febrile neutropenia [1, 6]: 1 n
Grade 4 SAEs: hypokalemia [1, 6]: 1 n
Grade 4 SAEs: leukopenia [1, 6]: 4 n
Grade 4 SAEs: neutropenia [1, 6]: 4 n
Grade 4 SAEs: thrombocytopenia [1, 6]: 7 n
Grade 5 sepsis resulting in death (patients) [1, 6]: one
patients who discontinued due to AEs ([1]; n = 5 of 15, including a patient who died): 33%
PK [2]: unremarkable PK
Tmax ([3]; previously reported value): 1 h
half-life ([3]; prior value): 11.5 h
AUC(0-inf) (clinical; 10 mg, plasma, day 2, geometric mean (SD), dose level 0, 10 mg twice daily on days 2 and 9 (n = 3), last sample 8 hours): 2100 ng·h/mL
Cmax (clinical; 10 mg, for each 10 mg dose, very similar to the previous report): ~200 ng/mL
Cmax (clinical; 10 mg, plasma, day 2, geometric mean (SD), dose level 0, 10 mg twice daily on days 2 and 9 (n = 3)): 194 ng/mL
AUC(0-inf) (clinical; 20 mg, plasma, day 2, geometric mean (SD), dose level 1, 20 mg twice daily on days 2 and 9 (n = 3), last sample 8 hours): 7010 ng·h/mL
AUC(0-inf) (clinical; 20 mg, plasma, day 2, geometric mean (SD), dose level −1, 20 mg once a day on days 2 and 9 (n = 3), last sample 24 hours): 3690 ng·h/mL
AUC(0-inf) (clinical; 20 mg, plasma, day 2, geometric mean (SD), dose level −2, 20 mg once a day on day 2 (n = 6), last sample 24 hours): 5210 ng·h/mL
Cmax (clinical; 20 mg, plasma, day 2, geometric mean (SD), dose level 1, 20 mg twice daily on days 2 and 9 (n = 3)): 625 ng/mL
Cmax (clinical; 20 mg, plasma, day 2, geometric mean (SD), dose level −1, 20 mg once a day on days 2 and 9 (n = 3)): 355 ng/mL
Cmax (clinical; 20 mg, plasma, day 2, geometric mean (SD), dose level −2, 20 mg once a day on day 2 (n = 6)): 472 ng/mL
